# Results deposited as PubChem BioAssay AID493246 (Drosophila RNAi Screening Center, 2011)
# Aim: 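Genome-wide search for dsRNAs that reduce cell number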 (primary screen)
# System: Drosophila Kc and S2R+ cells
# Reagents: long dsRNA against Drosophila genes
# Detection: 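Raw, unnormalised count of remaining cells in each well; per-plate z-scores of cell number underlie the calls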
# Reading the numbers: Kc cell number and S2R+ cell number: higher = more cells remaining
# Rule for the call: 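Active when the per-plate z-score of cell number is 3 or more in the direction of fewer cells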
# The deposit covers about 21,000 reagents; below is an unselected part of those with a known target gene and a result. Of all reagents, 429 (2%) were called active. 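Values are raw and not normalised between plates; calls rest on per-plate z-scores that were not deposited.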 A number with no mark means an inactive call. Reagent sequences are not shown. Not stated in the record: the amount of reagent, the time to read-out.
Gene,dsRNA,"Kc cell number, rep 1","Kc cell number, rep 2","S2R+ cell number, rep 1","S2R+ cell number, rep 2"
mthl5 (methuselah-like 5),DRSC16155,1.69e6,1.69e6,1.34e6,1.45e6
ato (atonal),DRSC16904,1.85e6,2.04e6,1.24e6,1.66e6
mRpL15 (mitochondrial ribosomal protein L15),DRSC11771,1.46e6,1.52e6,1.14e6,1.18e6
CG4210,DRSC15551,1.24e6,1.32e6,1.15e6,1.28e6
mRpS16 (mitochondrial ribosomal protein S16),DRSC07152,1.64e6,1.63e6,1.21e6,1.37e6
CG1999,DRSC18199,1.20e5,,9.34e5,
Polr3A (RNA polymerase III subunit A),DRSC19766,1.47e6,1.47e6,1.05e6,1.12e6
strat (stratum),DRSC03069,1.89e6,1.95e6,1.19e6,1.42e6
CG16995,DRSC00480,1.53e6,1.54e6,1.05e6,1.12e6
CG33271,DRSC10583,1.19e6,1.23e6,1.04e6,1.11e6
l(3)neo38 (lethal (3) neo38),DRSC14946,1.46e6,1.56e6,1.05e6,1.19e6
l(3)neo38 (lethal (3) neo38),DRSC16138,1.57e6,1.65e6,1.38e6,1.50e6
CdGAPr (Cd GTPase activating protein-related),DRSC03289,1.62e6,1.66e6,1.24e6,2.46e5
CG9518,DRSC20194,1.46e6,1.45e6,1.08e6,1.18e6
ed (echinoid),DRSC00350,1.41e6,1.43e6,7.82e5,8.85e5
ed (echinoid),DRSC00438,1.63e6,1.67e6,1.23e6,1.48e6
ed (echinoid),DRSC00439,1.73e6,1.83e6,1.34e6,1.49e6
ed (echinoid),DRSC00478,1.64e6,1.63e6,1.15e6,1.42e6
CG5554,DRSC04513,1.53e6,1.56e6,1.20e6,1.43e6
pain (painless),DRSC04273,1.56e6,1.68e6,1.46e6,1.65e6
CG8303,DRSC07140,1.56e6,1.60e6,1.15e6,1.28e6
S6k (Ribosomal protein S6 kinase),DRSC11276,1.43e6,1.32e6,1.26e6,1.28e6
GstD7 (Glutathione S transferase D7),DRSC16688,1.80e6,1.69e6,1.41e6,1.57e6
Rtca (RNA 3'-terminal phosphate cyclase),DRSC18517,4.98e5,,8.14e5,
CG6527,DRSC10659,1.69e6,1.73e6,1.31e6,1.46e6
CG42780,DRSC17514,1.45e6,1.75e6,1.02e6,1.15e6
"Smyd4-1 (SET and MYND domain containing, class 4, member 1)",DRSC06785,1.37e6,1.60e6,1.03e6,1.07e6
Der-2 (Derlin-2),DRSC15021,1.53e6,1.59e6,9.85e5,1.10e6
Rrp47 (Ribosomal RNA processing 47),DRSC20124,1.51e6,1.55e6,1.13e6,1.24e6
hebe,DRSC05192,1.56e6,1.64e6,1.01e6,1.14e6
hebe,DRSC06605,1.52e6,1.50e6,1.07e6,1.20e6
Srx (Sulfiredoxin),DRSC20005,1.52e6,1.46e6,1.04e6,1.05e6
Cndp2 (Cytosolic non-specific dipeptidase 2),DRSC04873,1.54e6,1.52e6,1.18e6,1.36e6
Ance-2,DRSC02539,1.48e6,1.55e6,1.28e6,1.42e6
CG10194,DRSC02025,1.42e6,1.48e6,1.30e6,1.37e6
Acbp4 (Acyl-CoA binding protein 4),DRSC11023,1.63e6,1.54e6,1.06e6,1.13e6
Sin1 (SAPK-interacting protein 1),DRSC05965,1.46e6,1.50e6,1.17e6,1.20e6
Crtc (CREB-regulated transcription coactivator),DRSC10578,1.37e6 (active),1.44e6,7.76e5,8.62e5
CG10931,DRSC06015,1.61e6,1.61e6,1.23e6,1.42e6

Only “Kc cell number, rep 1” (7 entries from above):
ed (echinoid) [DRSC00478]	1.64e6
CG5554 [DRSC04513]	1.53e6
pain (painless) [DRSC04273]	1.56e6
CG8303 [DRSC07140]	1.56e6
S6k (Ribosomal protein S6 kinase) [DRSC11276]	1.43e6
GstD7 (Glutathione S transferase D7) [DRSC16688]	1.80e6
Rtca (RNA 3'-terminal phosphate cyclase) [DRSC18517]	4.98e5

The list goes on:
Gene,dsRNA,"Kc cell number, rep 1","Kc cell number, rep 2","S2R+ cell number, rep 1","S2R+ cell number, rep 2"
Trs31 (TRAPP subunit 31),DRSC05975,1.44e6,1.51e6,1.10e6,1.23e6
barc (barricade),DRSC11792,1.30e6,1.37e6,1.25e6,1.31e6
GLS (Glutaminase),DRSC07261,1.50e6,1.56e6,1.09e6,1.10e6
fred (friend of echinoid),DRSC00349,1.70e6,1.56e6,1.24e6,1.64e6
fred (friend of echinoid),DRSC00599,1.49e6,1.54e6,1.07e6,1.20e6
fred (friend of echinoid),DRSC00601,1.63e6,1.58e6,1.18e6,1.34e6
fred (friend of echinoid),DRSC00602,1.69e6,1.43e6,1.18e6,1.35e6
Muc30E (Mucin 30E),DRSC01101,1.25e6,1.37e6,1.04e6,1.24e6
qtc (quick-to-court),DRSC02364,1.26e6,1.37e6,5.46e5,6.62e5
qtc (quick-to-court),DRSC02365,1.63e6,1.56e6,1.18e6,1.38e6
CG12964,DRSC06266,1.72e6,1.73e6,1.23e6,1.41e6
Mal-A8 (Maltase A8),DRSC07234,1.89e6,1.94e6,1.44e6,1.71e6
rdgBbeta,DRSC07672,1.67e6,1.72e6,1.13e6,1.36e6
GlnRS (Glutaminyl-tRNA synthetase),DRSC14140,5.42e5,,8.37e5,
HisCl1 (Histamine-gated chloride channel subunit 1),DRSC14945,1.46e6,1.51e6,1.24e6,1.23e6
UQCR-Q (Ubiquinol-cytochrome c reductase ubiquinone-binding protein),DRSC10886,1.31e6,1.40e6,1.16e6,1.28e6
Spc25,DRSC14164,1.45e6,1.21e6,8.45e5,7.01e5
TpnC4 (Troponin C isoform 4),DRSC04856,1.73e6,1.82e6,1.50e6,1.50e6
CG6304,DRSC02948,1.24e6,1.30e6,1.31e6,1.47e6
CG18269,DRSC02660,1.59e6,1.48e6,1.11e6,1.24e6
